The assay in a line: qHTS Assay for Lipid Storage Modulators in Drosophila S3 Cells.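 For cell number change: cells counted by Cell Tracker Red CMTPX staining in the red channel.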 Conditions: BODIPY lipid droplet fluorescence, 18-24 h; for cell number change: measured here: cell count max response, cells fed with added oleic acid. The essentials: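 Drosophila S3 cells loaded with oleic acid (400 uM, as added) and compounds at several concentrations; lipid droplets imaged by 488-nm laser-scanning cytometry, 500–530 nm intensity and object ratio to cell channel. Percent activity normalized to 20 uM Triacsin C.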

The mark [1] stands for this setting: measured here: cell number channel AC50, cells fed with added oleic acid.
Where [2] appears, read: measured here: lipid fluorescence (Fed channel) AC50, cells fed with added oleic acid.

Each structure is given as a SMILES string. Some of the results follow. These are further read-outs of the screen, such as a control signal, another cell line or another target. No call is given for them. Compounds called inactive in the main read-out are mostly missing here. Words in brackets tell the shape of the fitted curve; partial curves, single points and poor fits give uncertain potencies.

As for `CC1CC(C)CN(S(=O)(=O)c2ccc(C(=O)Nc3sccc3C(N)=O)cc2)C1` (stereo not drawn), the cell number change is -14.4%. The AC50 (usually the concentration giving half of the maximal activity seen) under setting [1] is 0.058 µM [rising, full curve, poor fit]. The AC50 under setting [2] is 0.0651 µM [rising, full curve].
`O=C(Cc1ccccc1F)Nc1nc(-c2ccc(F)c(F)c2)cs1`: the cell number change is 33.8%. The concentration at half-maximal activity (AC50) under setting [2] is 6.51 µM [rising, partial curve].
Turning to `COc1cc2c(cc1OC)C1=C(C#N)CCC(=NC(=O)c3ccco3)N1CC2`, the cell number change was -7.35%. Moreover, the AC50 under setting [2] was 1.64 µM [rising, partial curve, poor fit].
For the compound `CCOc1ccc2c(c1)C(c1ccc(C)cc1)=NNC(c1ccc(C)cc1)=N2`, the cell number change was -54.1%. Also, under setting [1], the AC50 was 29.1 µM [falling, single point]. The AC50 under setting [2] is 23.1 µM [falling, single point].
For the compound `COc1ccc(S(=O)(=O)N2CCOCC2)cc1NC(=O)c1cc(=O)[nH]c2ccccc12`, the cell number change is 10.6%. Besides, the AC50 under setting [2] was 18.4 µM [rising, single point].
On to `CCOC(=O)N1CCC(NC(=O)c2ccc3c(c2)N(Cc2ccc(C)cc2)CCS3)CC1`, for which the cell number change is -61.8%. Also, the AC50 under setting [1] is 10.3 µM [falling, partial curve]. Under setting [2], the AC50 was 6.51 µM [falling, single point].
In the case of `COc1ccc(CC(=O)N/N=C/c2cccs2)cc1OC`, the cell number change was found to be 6.94%.
For `Cc1c(C(=O)NC(c2ccccn2)C(F)(F)F)oc2c(F)cccc12` (stereo not drawn), the cell number change was -2.14%. In addition, the concentration at half-maximal activity (AC50) under setting [2] was 18.4 µM [rising, single point].
Regarding `O=C(NCCCN1CCOCC1)c1ccc(Cl)cc1[N+](=O)[O-]`, the cell number change amounted to 16.3%. In addition, the AC50 under setting [2] was 18.4 µM [rising, partial curve, poor fit].
For `COc1ccc(-c2ccc(C(C)=O)cc2)cc1[C@H]1[C@@H]2C=CCC[C@@]2(C)C(=O)N1Cc1ccccc1`, the cell number change was determined as 16.8%. The AC50 under setting [2] was 1.16 µM [rising, full curve].
Consider `CC(=O)N1N=C(c2ccc(Br)cc2)CC1c1cn(C)c2ccccc12` (stereo not drawn), for which the AC50 under setting [1] was 6.51 µM [rising, single point].
Regarding `CC#CCN(Cc1ccco1)C(=O)c1ccc(OC2CCN(Cc3ccccn3)CC2)cc1`, the cell number change was -28.9%.
For the compound `OCC[C@H]1C[C@H](O)[C@@H](O)[C@]2(Cc3ccccc3O2)O1`, the cell number change was -29.9%. In addition, the AC50 under setting [2] is 14.6 µM [falling, partial curve].
As for `COc1ccc(S(=O)(=O)N2CCN(C/C=C/c3ccccc3)CC2)cc1F`, the cell number change was found to be 53.8%.
`O=C(OC(C(=O)NC1CCCC1)c1ccc(F)cc1)c1ccno1` (stereo not drawn): the AC50 by setting is: under setting [1], 0.58 µM [falling, single point]; under setting [2], 6.51 µM [falling, single point].
For the compound `COc1ccccc1C(=O)N1CCN(Cc2nc3cc([N+](=O)[O-])ccc3n2C)CC1`, the cell number change is 112%.
`O=C(Nc1ccc(F)c(F)c1)c1ccc(-n2cncn2)c([N+](=O)[O-])c1`: the cell number change was -29.8%. Also, the AC50 under setting [1] is 0.731 µM [falling, full curve, poor fit]. Besides, the half-maximal activity concentration (AC50) under setting [2] is 0.517 µM [falling, full curve].
Regarding `CCC(C)(C)NC(=O)C(c1ccc(OC)cc1)N(C(=O)CCC(=O)Nc1cc(C)on1)c1cccc(F)c1` (stereo not drawn), the cell number change was 11.7%.
On to `Brc1cccc(Nc2nc(-c3cccnc3)cs2)c1`, for which the cell number change was -24%.
As for `COc1ccc(OC)c(-c2cc(C(=O)Nc3c(C)nn(Cc4ccccc4)c3C)no2)c1`, the cell number change was -0.534%. Besides, the concentration at half-maximal activity (AC50) under setting [2] is 0.461 µM [rising, full curve].
Turning to `Cc1ccc(N(CC(=O)O)C2SC(=O)NC2=O)cc1` (stereo not drawn), the cell number change was -188%. The AC50 under setting [1] was 18.4 µM [falling, partial curve]. For the same compound, the AC50 under setting [2] is 20.6 µM [falling, partial curve].
As to `CCOC(=O)c1c(SC)nc(SC)c2c1CCC2`, the cell number change is 8.05%.
For `CCOc1ccc(C(=O)NCC(C)CN(C)C)cc1OCC` (stereo not drawn), the cell number change is -38.6%. Also, the AC50 under setting [1] is 29.1 µM [falling, single point]. Also, under setting [2], the AC50 is 18.4 µM [falling, single point].
Turning to `O=C(O)c1cn(-c2ccc(N3CCCC3)c(F)c2)c2c(F)c(F)c(F)cc2c1=O`, the cell number change is 3.71%. The AC50 under setting [1] was 5.17 µM [falling, single point]. Moreover, under setting [2], the AC50 was 5.8 µM [falling, single point].
Consider `CC(C)=C1SC(N2CCN(c3cccc(C(F)(F)F)c3)CC2)=NC1=O`, for which the cell number change was -12.2%. In addition, the AC50 under setting [2] was 0.184 µM [falling, full curve, poor fit].
As to `Cc1ccc(C(=O)C2CCN(CC(=O)NC3CCCC3)CC2)cc1`, the cell number change was 14.8%.
As to `CCCNC(=O)C1CC(c2ccccc2C(F)(F)F)=NO1` (stereo not drawn), the cell number change stood at 23.6%. The AC50 under setting [2] was 13 µM [rising, partial curve].
On to `COCCNC(=O)c1cc2sc3ccccc3c2s1`, for which the AC50 runs as follows: under setting [1], 0.82 µM [rising, partial curve]; under setting [2], 6.51 µM [rising, single point].
Consider `COc1ccc(CNC(=O)C2CC=CCC2C(=O)O)cc1OC` (stereo not drawn), for which the cell number change came to 12.7%. For the same compound, the concentration at half-maximal activity (AC50) under setting [2] was 18.4 µM [rising, single point].
As to `O=C(COC(=O)CCC1CCCC1)NCc1ccc(Cl)cc1`, the cell number change was -18.9%.
Regarding `Cc1cccc(NC(=O)CNC(=O)COc2cc(F)ccc2[N+](=O)[O-])c1C`, under setting [2], the AC50 is 4.61 µM [rising, partial curve].
Turning to `CS(=O)(=O)N1CCN=C1SCc1ccc(F)cc1`, the cell number change is -8.02%.
In the case of `CCCCC(=O)Nc1nc(C)c(C(C)=O)s1`, the cell number change was -13%. Besides, the half-maximal activity concentration (AC50) under setting [2] is 0.0092 µM [falling, full curve, poor fit].
`S=C(NCC1CCCO1)Nc1cccc(Cl)c1` (stereo not drawn): the half-maximal activity concentration (AC50) under setting [2] is 0.116 µM [rising, full curve, poor fit].
In the case of `Cc1nn(C)c(C)c1NS(=O)(=O)c1ccccc1Cl`, the cell number change was 35.1%. Also, the AC50 under setting [1] is 29.1 µM [rising, single point]. In addition, the AC50 under setting [2] is 16.4 µM [rising, single point].
Consider `CC12CCC(C(=O)N3CCN(c4ncccn4)CC3)(c3nc4ccccc4nc31)C2(C)C` (stereo not drawn), for which the cell number change is -16.4%.
Take `Cc1cc(C)cc(OCC(=O)NNC(=O)CN2C(=O)c3ccccc3C2=O)c1`: the cell number change is -15.2%.
Regarding `COc1ccc(C(=O)C2CCN(CC(=O)Nc3ccc(OC)cc3OC)CC2)cc1`, the cell number change was -11.5%.
For `O=C(NC(=S)N1CCN(c2ccc([N+](=O)[O-])cc2)CC1)c1ccccc1F`, the cell number change was -61.1%. The AC50 under setting [1] is 9.2 µM [falling, partial curve]. For the same compound, under setting [2], the AC50 is 29.1 µM [falling, single point].
Take `CCCCn1c(N)c(N(CCOC)C(=O)c2cc(C)oc2C)c(=O)[nH]c1=O`: the cell number change is -25%. Besides, the AC50 under setting [2] is 9.2 µM [rising, partial curve].
